{
  "source": "patent US20220096509A1",
  "about": "“Reformulating Hospital Gentamicin to reduce the risk of hearing loss while maintaining antimicrobial activity” (priority 2019, published 2022)",
  "system": "S. aureus, E. coli, K. pneumoniae, P. aeruginosa strains",
  "assay": "Antimicrobial breadth and potency (MIC) across 40 bacterial strains",
  "type": "cell-based",
  "settings": "40 strains tested; breadth defined as MIC value ≤4μg/ml",
  "text": "The colors represent different species, the numbers in the columns refer to the number of individual strains inhibited, where black=S. aureus, grey=E. coli, blue=K. pneumoniae, white=P. aeruginosa. […] (2B) The MIC values for each strain (diamond symbols) split by species, where Hospital=red, C1=orange, blue=C1a, cyan=C2, green=C2a, purple=C2b (grey scale only). Filled symbols indicate strains with antimicrobial resistance. The box indicates the 25-75 percentiles, stars indicate geometric means, *=P<0.05, **=P<0.01 tested using Mann Whitney U Non-Parametric analysis. […] (2C) The antimicrobial breadths of the impurities relative to a hospital bottle. […] (2D) The MIC values for each strain split by species.\nThe antimicrobial activity of the main components of gentamicin were studied relative to a single hospital bottle (gentamicin mixture) from Stanford University Hospital.",
  "note": "Some entries share one result that the patent states for a list of compounds. At least one compound was matched to its structure with a doubt left.",
  "data": [
    {"smiles": "CN[C@@H]1[C@@H](O)[C@@H](O[C@@H]2[C@@H](O)[C@H](O[C@H]3O[C@H](CN)[C@@H](O)[C@H](O)[C@H]3O)[C@@H](N)C[C@H]2N)OC[C@]1(C)O", "note": "[Gent B]", "values": [
      {"measurement": "number of strains inhibited (antimicrobial breadth)", "result": "15-21 strains"}
    ]}
  ]
}
